Laboratory results from patent publication US20040259781A1 (Novartis, published 2004).

The chains behind the UniProt entries cited, without tags or fusion partners. Where a name states a change or a piece, a line headed by the entry shows the natural chain unless it says otherwise. Residues count along the entry.
UniProt P10039: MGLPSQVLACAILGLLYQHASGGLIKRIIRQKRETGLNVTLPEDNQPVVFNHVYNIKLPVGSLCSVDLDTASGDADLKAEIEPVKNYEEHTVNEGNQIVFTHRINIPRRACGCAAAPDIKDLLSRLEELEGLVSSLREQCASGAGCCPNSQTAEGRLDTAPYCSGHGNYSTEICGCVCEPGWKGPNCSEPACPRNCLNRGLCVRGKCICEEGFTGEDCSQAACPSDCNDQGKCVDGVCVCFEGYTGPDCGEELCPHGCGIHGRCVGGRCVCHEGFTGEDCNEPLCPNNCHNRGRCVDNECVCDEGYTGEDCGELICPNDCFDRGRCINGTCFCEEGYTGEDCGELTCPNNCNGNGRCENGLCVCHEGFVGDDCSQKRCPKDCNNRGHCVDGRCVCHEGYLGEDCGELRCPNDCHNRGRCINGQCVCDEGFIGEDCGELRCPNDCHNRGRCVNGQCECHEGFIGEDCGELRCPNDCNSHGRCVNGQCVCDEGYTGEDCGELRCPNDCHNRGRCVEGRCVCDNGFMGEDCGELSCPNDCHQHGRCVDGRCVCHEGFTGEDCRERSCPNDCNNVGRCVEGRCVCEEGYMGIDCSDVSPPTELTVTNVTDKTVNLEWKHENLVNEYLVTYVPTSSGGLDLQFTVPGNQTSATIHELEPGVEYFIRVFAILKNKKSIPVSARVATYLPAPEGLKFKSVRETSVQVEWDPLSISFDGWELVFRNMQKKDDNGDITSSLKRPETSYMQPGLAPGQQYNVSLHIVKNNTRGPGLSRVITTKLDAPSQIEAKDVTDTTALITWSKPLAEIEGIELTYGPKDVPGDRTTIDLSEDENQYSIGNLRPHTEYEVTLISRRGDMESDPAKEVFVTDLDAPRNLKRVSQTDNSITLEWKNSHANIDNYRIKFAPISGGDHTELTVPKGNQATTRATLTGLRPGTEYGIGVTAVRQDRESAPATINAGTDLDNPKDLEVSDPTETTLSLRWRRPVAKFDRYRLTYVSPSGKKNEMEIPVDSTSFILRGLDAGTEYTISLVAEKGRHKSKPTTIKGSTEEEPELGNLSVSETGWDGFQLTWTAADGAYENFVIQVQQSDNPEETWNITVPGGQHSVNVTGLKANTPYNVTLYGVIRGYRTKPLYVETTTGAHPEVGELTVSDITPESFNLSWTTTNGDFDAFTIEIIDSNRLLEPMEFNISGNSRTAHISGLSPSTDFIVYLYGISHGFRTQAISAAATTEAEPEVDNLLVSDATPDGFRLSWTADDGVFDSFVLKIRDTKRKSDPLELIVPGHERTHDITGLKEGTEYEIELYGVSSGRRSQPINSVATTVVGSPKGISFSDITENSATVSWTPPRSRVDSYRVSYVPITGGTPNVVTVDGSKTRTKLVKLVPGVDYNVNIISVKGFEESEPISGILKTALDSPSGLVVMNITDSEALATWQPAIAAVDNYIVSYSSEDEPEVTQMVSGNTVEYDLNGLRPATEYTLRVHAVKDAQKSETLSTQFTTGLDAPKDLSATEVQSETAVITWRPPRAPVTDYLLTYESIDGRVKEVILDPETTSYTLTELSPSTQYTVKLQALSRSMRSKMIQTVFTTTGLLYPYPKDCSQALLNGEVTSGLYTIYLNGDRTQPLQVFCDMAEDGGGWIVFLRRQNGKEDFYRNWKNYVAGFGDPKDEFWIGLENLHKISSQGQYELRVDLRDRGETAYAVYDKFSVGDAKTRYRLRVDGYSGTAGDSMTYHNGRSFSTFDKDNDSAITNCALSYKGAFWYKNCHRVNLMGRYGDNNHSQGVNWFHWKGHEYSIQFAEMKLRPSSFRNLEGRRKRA
UniProt Q28377, residues 32-2477: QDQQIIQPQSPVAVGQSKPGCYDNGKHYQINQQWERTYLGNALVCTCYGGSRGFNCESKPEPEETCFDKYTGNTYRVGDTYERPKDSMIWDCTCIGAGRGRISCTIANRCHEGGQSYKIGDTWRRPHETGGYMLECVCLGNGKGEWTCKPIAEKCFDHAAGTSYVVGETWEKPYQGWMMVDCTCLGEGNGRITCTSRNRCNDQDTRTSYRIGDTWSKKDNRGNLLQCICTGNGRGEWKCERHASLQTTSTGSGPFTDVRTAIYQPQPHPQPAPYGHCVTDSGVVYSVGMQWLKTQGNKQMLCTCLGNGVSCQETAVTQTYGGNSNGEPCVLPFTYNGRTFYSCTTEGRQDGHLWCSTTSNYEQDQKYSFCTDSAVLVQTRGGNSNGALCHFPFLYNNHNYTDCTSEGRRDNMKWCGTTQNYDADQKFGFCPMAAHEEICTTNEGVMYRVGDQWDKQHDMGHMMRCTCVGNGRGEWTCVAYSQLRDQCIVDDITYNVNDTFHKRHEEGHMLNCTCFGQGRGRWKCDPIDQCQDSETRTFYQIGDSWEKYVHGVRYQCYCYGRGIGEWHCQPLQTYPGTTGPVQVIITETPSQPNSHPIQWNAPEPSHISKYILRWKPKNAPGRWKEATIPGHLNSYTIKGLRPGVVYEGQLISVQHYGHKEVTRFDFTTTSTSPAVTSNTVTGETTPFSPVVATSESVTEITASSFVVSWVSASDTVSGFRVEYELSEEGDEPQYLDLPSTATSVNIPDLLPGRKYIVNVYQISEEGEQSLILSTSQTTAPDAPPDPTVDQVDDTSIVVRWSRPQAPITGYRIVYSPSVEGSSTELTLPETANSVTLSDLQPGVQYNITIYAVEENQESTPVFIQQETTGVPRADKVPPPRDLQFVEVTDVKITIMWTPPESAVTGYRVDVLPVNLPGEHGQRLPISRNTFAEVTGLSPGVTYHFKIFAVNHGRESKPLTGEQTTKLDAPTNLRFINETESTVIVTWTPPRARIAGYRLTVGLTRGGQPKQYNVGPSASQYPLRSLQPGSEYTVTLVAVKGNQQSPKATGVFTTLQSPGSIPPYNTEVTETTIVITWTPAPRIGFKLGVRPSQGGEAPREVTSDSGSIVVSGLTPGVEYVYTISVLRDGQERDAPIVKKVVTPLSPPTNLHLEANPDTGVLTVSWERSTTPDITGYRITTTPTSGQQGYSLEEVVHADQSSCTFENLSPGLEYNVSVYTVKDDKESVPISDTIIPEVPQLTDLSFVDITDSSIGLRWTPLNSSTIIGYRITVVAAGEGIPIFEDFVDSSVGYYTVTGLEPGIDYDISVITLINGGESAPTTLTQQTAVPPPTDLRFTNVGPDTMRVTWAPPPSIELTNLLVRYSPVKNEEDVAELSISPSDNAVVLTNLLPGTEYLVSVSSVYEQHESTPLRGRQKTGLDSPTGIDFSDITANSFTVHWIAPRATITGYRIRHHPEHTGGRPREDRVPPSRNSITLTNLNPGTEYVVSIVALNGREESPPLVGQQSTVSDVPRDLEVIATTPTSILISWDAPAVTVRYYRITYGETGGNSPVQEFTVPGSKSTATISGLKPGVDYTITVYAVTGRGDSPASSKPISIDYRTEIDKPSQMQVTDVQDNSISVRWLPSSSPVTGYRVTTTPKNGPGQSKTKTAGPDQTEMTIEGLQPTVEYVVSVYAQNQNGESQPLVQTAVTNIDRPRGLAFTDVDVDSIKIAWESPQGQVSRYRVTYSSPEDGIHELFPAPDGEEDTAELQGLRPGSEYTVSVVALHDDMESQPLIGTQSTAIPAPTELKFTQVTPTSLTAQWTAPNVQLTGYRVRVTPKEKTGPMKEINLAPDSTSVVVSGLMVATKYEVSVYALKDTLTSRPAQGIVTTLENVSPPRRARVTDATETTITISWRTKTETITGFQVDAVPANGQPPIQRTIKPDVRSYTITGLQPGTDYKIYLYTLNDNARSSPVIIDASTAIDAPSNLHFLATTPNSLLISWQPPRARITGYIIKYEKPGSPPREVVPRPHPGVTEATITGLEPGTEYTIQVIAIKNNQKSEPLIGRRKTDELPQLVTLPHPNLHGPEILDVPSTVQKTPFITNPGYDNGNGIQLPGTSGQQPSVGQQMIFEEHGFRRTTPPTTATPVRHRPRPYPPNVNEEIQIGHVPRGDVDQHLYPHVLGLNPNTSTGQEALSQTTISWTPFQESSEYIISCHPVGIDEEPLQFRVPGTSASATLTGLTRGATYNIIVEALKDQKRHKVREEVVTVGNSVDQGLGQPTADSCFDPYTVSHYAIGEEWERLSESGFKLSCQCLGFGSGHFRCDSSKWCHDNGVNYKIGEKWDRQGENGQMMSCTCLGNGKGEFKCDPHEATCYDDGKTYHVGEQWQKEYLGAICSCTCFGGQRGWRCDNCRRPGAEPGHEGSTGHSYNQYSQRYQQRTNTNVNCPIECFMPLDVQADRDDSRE

Columns and labels:
[1] = molecular target: Full length chicken tenascin-C TN260 (chicken) (UniProt P10039); experiment: ELISA, tenascin-C immobilised
[2] = molecular target: Fibronectin (purified from horse serum) (horse) (UniProt Q28377); experiment: ELISA with fibronectin and recombinant fragments
[3] = molecular target: Full length chicken tenascin-C TN260 (chicken) (UniProt P10039); experiment: cells plated on substratum

Fibronectin (purified from horse serum) (from UniProt Q28377 32-2477)
binding [1]: binds

Full length chicken tenascin-C TN260 (from UniProt P10039)
binding [2]: binds

B1: Syndecan-1 overexpressed on T98G glioblastoma cells (receptor, mouse, UniProt P18828 23-311, looked up)
chain: QIVAVNVPPEDQDGSGDDSDNFSGSGTGALPDTLSRQTPSTWKDVWLLTATPTAPEPTSSNTETAFTSVLPAGEKPEEGEPVLHVEAEPGFTARDKEKEVTTRPRETVQLPITQRASTVRVTTAQAAVTSHPHGGMQPGLHETSAPTAPGQPDHQPPRVEGGGTSVIKEVVEDGTANQLPAGEGSGEQDFTFETSGENTAVAAVEPGLRNQPPVDEGATGASQSLLDRKEVLGGVIAGGLVGLIFAVCLVAFMLYRMKKKDEGSYSLEEPKQANGGAYQKPTKQEEFYA
binding [3]: no binding

No constants are given. Whether binding was seen depends on the method and setting. For part of these data: A result given as binding can be weak or reduced; the word gives no strength.
